According to paper PMC5626702:
These are yes or no findings as the source states them, for the method shown. In cells and extracts the contact can be indirect. Some entries that bind do so weakly or less than the wild type.

By UniProt entry, the sequences of proteins in these tests, tags left out.
UniProt Q03113: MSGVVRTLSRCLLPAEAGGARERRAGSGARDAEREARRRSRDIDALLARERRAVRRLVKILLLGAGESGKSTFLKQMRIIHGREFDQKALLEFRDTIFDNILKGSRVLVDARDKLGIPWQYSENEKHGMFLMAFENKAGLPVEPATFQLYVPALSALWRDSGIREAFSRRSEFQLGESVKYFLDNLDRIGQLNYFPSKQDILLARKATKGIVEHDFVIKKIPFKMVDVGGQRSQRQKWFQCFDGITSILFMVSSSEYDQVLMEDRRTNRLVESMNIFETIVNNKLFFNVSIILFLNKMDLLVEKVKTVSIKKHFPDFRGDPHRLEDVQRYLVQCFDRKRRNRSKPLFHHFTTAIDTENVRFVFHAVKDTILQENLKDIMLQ
UniProt P50148: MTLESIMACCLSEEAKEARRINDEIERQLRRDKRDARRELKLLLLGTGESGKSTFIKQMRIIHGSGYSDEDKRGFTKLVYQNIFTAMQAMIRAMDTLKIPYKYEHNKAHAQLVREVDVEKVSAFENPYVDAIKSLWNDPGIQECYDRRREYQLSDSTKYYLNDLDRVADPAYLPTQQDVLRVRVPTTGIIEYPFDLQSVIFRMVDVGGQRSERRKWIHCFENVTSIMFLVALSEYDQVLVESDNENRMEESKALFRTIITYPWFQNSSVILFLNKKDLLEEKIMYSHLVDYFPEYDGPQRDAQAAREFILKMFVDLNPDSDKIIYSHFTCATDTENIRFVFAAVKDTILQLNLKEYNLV

Target: T1, GPR91 (human (endogenous in hMSC)) (UniProt Q9BXA5)
T1 sequence: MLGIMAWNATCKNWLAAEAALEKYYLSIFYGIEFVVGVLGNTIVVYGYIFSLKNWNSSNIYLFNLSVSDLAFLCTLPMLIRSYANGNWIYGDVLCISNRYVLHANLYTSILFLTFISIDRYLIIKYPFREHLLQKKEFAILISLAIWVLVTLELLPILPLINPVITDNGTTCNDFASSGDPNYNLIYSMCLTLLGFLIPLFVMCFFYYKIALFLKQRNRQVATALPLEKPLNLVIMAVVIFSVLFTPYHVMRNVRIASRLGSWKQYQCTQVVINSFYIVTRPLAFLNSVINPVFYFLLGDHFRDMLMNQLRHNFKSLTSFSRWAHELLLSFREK
Assay: co-IP; endogenous proteins of hMSC lysate; control cells of the experiment with or without succinate for 5 min; the precipitating antibody is not told

Row | Substance | binding
1 | Gα12 (from UniProt Q03113 1-381) | binds
2 | Gαq (from UniProt P50148 1-359) | binds
